Test results taken from US20180244795A1.
These are yes or no findings as the source states them, for the method shown. Some entries that bind do so weakly or less than the wild type.

How the values were obtained:
[1] = target: hCD37-Fc-LAGA (amino acids 107 to 235 of human CD37 fused to human IgG1 Fc-domain) (human); test: native PAGE Western blot
[2] = target: hCD37-Fc-LAGA (amino acids 107 to 235 of human CD37 fused to human IgG1 Fc-domain) (human); test: denaturing SDS PAGE Western blot
[3] = target: hCD37-Fc-LAGA (amino acids 107 to 235 of human CD37 fused to human IgG1 Fc-domain) (human); test: ELISA, purified antibody on native coated antigen
[4] = target: hCD37-Fc-LAGA (amino acids 107 to 235 of human CD37 fused to human IgG1 Fc-domain) (human); test: ELISA, purified antibody on native coated antigen (FIG. 2 legend)
[5] = target: hCD37-Fc-LAGA (amino acids 107 to 235 of human CD37 fused to human IgG1 Fc-domain) (human); test: ELISA, hybridoma supernatant on coated antigen; antigen taken from FIG. 1B legend
[6] = target: hCD37-Fc-LAGA (amino acids 107 to 235 of human CD37 fused to human IgG1 Fc-domain) (human); test: ELISA, hybridoma supernatant on coated antigen, native and denatured (FIG. 1B legend)
[7] = target: hCD37-Fc-LAGA (amino acids 107 to 235 of human CD37 fused to human IgG1 Fc-domain) (human); test: Western blot after native PAGE (Gel C), primary 1B11-2, secondary anti-mouse F(ab)2-HRP
[8] = target: hCD37-Fc-LAGA (amino acids 107 to 235 of human CD37 fused to human IgG1 Fc-domain) (human); test: ELISA, native hCD37-Fc-LAGA coated on the plate, purified antibody titrated (left panel)
[9] = target: hCD37-Fc-LAGA (amino acids 107 to 235 of human CD37 fused to human IgG1 Fc-domain) (human); test: Western blot after denaturing, reducing SDS PAGE (Gel C), primary 1B11-2, secondary anti-mouse F(ab)2-HRP

Measured: binding

B1: muCD37-1B11-2 mouse monoclonal anti-human CD37 antibody (antibody, mouse IgG1, kappa, V domains shown)
VH: EVQLLQSGPELVKPGASVKISCKASGYSFTGYFMNWVIQSHGKGLEWIGRINPYNGDTFYNQKFKGKATLTVDKSSTTAHMELLSLTSEDSAVYYCGSRGIVASSRFFDVWGAGTSVIVSS
VL: SIVMTQTPKFLLVSAGDRVTITCKASQGVSNDVDWYQQKPGQSPKLLIYYASNRYTGVPDRFTGSGYGTDFTFSISTVQAEDLAVYFCHQDYTSPTFGGGTKLEIKR
binds: all assays above
